Source: the supplement of paper PMC10849652
The other results are listed elsewhere or left out.

Sequences of proteins named here, by UniProt entry; tags and fusion partners are left off. A change or cut given only in a name is not applied to a line headed by its entry.
UniProt Q13049: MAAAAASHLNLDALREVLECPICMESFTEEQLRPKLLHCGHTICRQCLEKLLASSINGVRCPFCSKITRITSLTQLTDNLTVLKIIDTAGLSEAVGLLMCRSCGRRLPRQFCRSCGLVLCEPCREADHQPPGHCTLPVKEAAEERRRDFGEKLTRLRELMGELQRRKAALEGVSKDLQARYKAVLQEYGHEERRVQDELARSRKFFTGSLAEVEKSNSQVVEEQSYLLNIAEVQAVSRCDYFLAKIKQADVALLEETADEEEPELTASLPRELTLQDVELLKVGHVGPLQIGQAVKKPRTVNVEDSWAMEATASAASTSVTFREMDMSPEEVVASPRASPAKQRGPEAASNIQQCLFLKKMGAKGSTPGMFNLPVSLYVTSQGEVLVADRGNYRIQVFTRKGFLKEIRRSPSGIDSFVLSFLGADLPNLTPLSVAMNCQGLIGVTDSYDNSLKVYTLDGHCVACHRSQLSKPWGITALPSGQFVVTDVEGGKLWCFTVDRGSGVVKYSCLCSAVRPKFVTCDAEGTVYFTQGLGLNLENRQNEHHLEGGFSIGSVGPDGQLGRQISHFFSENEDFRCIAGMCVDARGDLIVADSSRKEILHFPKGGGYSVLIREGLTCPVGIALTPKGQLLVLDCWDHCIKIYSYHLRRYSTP
UniProt Q15645: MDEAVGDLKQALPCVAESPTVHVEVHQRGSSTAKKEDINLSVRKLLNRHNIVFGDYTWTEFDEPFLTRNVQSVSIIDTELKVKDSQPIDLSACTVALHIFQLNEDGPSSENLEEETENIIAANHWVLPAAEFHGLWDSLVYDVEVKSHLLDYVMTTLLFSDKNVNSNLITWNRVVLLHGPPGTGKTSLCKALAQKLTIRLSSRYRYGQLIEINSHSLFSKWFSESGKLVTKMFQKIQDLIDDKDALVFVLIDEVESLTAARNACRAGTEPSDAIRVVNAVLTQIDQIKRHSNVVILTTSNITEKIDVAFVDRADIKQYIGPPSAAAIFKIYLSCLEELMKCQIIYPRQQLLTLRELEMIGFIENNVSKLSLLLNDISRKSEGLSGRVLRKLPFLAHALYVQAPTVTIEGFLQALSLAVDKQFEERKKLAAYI
UniProt Q9BQ61: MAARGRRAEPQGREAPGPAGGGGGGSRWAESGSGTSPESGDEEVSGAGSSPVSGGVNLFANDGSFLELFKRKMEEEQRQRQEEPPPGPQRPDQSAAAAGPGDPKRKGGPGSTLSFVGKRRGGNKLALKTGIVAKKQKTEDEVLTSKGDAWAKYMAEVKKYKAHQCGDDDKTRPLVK
UniProt Q96Q11: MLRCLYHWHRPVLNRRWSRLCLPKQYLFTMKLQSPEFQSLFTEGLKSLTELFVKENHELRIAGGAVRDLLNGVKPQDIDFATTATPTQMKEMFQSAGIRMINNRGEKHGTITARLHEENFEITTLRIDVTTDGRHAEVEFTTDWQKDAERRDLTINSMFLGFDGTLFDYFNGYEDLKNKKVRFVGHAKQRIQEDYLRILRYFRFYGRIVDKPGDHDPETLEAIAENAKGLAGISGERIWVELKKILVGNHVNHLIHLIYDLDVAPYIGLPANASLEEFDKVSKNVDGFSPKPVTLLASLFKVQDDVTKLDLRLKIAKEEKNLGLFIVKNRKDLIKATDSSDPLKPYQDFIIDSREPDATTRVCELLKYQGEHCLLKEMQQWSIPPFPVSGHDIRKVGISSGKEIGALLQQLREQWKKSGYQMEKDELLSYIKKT
UniProt Q15654: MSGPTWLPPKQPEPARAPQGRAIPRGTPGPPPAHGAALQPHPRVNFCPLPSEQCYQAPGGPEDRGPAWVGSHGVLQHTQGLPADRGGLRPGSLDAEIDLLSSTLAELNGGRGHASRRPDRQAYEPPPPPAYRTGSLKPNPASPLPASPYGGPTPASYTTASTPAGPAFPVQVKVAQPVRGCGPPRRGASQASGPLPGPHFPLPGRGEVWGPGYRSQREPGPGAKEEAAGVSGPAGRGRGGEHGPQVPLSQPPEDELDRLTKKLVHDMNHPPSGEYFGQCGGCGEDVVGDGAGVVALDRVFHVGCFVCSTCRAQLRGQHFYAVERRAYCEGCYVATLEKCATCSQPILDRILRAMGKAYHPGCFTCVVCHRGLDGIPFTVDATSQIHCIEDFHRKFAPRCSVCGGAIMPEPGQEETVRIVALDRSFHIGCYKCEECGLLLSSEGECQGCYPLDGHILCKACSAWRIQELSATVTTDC
UniProt Q5JTV8: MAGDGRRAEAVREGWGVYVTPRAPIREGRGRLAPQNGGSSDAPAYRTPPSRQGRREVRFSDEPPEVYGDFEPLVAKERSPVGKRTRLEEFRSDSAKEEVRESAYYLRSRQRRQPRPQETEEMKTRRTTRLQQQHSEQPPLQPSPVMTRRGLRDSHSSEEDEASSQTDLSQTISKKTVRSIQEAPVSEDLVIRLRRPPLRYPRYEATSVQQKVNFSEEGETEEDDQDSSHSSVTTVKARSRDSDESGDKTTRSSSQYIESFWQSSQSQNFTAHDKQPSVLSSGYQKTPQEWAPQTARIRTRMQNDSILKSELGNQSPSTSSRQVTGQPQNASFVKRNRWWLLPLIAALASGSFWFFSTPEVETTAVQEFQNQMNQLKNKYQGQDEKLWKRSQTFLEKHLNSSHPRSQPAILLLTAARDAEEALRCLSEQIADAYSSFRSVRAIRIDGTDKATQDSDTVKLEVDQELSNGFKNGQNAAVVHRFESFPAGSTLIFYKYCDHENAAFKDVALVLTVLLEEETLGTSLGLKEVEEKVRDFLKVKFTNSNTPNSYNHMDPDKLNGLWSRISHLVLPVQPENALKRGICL
UniProt O60704: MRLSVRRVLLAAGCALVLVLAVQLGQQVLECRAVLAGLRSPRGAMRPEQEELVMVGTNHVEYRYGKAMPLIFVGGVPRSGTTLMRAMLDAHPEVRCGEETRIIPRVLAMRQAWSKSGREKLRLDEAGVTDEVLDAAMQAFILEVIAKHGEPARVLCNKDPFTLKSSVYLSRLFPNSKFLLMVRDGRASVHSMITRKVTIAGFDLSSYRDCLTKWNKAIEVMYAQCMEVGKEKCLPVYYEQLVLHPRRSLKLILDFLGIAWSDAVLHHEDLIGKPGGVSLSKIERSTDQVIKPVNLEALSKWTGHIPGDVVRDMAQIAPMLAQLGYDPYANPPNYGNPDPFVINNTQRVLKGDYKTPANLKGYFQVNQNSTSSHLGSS
UniProt Q9C0C2: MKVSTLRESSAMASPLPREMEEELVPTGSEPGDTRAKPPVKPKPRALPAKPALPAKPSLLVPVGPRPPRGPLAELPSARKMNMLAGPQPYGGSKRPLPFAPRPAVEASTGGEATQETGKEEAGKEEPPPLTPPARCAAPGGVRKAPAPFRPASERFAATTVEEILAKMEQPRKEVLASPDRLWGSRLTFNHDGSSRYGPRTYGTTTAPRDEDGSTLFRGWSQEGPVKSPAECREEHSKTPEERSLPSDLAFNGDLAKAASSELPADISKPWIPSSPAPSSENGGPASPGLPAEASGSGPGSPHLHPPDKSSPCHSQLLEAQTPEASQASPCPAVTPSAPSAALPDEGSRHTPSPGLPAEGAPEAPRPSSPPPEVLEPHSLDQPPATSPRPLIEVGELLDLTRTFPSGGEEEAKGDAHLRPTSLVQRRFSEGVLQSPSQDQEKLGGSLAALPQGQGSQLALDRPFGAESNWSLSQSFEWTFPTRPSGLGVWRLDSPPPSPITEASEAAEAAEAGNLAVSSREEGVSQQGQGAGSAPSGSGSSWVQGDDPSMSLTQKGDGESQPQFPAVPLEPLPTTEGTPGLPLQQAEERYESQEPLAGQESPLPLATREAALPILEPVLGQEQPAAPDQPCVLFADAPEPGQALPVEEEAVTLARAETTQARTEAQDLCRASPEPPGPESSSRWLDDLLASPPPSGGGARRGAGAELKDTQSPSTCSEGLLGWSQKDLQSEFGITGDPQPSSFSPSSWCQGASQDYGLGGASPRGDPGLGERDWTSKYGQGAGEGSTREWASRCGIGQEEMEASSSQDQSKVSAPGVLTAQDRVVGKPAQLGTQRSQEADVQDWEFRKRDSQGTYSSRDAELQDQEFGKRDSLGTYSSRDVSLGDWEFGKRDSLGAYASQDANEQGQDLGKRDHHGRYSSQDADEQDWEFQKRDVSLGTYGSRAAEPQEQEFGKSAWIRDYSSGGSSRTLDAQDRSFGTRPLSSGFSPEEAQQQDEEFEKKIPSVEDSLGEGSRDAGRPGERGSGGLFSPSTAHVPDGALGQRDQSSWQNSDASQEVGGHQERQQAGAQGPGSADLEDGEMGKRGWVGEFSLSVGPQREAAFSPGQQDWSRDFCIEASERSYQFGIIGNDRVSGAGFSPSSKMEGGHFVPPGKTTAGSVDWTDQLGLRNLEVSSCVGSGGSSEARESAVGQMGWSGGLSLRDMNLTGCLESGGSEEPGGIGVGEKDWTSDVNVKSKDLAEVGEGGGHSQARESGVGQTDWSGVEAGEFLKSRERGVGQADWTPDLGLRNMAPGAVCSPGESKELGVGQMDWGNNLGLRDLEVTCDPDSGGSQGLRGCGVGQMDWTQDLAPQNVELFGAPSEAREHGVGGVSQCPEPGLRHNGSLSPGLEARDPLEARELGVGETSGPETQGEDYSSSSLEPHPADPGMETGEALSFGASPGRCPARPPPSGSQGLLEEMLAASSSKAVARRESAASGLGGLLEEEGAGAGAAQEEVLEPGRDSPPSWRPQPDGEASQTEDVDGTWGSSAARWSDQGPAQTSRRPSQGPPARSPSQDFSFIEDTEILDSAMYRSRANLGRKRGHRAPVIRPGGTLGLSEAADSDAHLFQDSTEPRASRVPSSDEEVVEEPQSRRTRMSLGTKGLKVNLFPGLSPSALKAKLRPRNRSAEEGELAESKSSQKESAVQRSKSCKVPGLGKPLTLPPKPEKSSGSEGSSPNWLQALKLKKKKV
UniProt O14545: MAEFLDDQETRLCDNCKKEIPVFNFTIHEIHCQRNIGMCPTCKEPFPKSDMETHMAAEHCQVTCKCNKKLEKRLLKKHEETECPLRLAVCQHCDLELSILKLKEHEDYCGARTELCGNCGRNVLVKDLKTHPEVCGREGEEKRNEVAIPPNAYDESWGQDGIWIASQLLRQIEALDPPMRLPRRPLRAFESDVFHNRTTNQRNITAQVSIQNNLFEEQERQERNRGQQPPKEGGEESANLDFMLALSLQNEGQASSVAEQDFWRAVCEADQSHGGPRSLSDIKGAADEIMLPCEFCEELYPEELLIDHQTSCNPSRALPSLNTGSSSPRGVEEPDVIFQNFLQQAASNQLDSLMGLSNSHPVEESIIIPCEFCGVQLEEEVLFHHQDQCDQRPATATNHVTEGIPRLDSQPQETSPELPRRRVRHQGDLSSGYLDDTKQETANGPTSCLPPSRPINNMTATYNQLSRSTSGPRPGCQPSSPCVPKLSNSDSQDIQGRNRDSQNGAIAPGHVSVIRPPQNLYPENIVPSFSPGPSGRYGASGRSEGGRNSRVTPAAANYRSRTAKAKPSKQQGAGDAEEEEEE
UniProt P20333, whole entry, looked up: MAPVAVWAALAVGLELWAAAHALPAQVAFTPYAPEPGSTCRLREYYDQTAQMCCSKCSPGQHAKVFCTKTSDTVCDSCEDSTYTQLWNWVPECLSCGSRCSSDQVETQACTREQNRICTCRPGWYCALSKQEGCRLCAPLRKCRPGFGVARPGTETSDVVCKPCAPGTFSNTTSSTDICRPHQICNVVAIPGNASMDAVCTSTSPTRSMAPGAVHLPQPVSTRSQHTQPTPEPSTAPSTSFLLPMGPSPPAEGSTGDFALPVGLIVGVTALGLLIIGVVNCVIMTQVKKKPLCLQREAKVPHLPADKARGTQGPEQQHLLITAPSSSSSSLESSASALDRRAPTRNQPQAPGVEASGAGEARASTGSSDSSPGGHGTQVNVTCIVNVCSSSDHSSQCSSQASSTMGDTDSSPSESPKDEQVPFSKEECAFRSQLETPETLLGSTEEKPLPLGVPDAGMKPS
UniProt Q15650: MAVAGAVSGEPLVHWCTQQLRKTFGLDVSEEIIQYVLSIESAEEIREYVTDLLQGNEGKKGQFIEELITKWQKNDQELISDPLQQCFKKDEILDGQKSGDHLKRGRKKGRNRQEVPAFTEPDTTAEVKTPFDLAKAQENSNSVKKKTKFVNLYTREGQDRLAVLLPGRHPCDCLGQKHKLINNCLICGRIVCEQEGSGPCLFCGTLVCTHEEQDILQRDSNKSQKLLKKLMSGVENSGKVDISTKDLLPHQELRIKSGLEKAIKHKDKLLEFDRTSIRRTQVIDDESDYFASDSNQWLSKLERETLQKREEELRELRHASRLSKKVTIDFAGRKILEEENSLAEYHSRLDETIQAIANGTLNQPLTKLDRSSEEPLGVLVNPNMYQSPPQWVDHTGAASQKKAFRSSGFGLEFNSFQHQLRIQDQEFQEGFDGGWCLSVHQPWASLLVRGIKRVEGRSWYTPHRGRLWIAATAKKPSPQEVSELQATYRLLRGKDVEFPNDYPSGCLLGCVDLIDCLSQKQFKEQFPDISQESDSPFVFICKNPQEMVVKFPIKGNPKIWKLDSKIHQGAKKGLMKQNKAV

Assays:
Test in all cases: log2 fold change, soluble protein after heating vs DMSO (PISA); higher = thermal stabilisation; K562 cells, 10 uM, 30 min; active = over 0.2 and 3.5 SD of the protein, either way, in both replicates (recomputed)
[1] = compound: COC1=CC=C(C=C1)CN2C=CC3=C2C=C(C=C3)C(=O)NO
Procedure, shortened: (§1)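 Soluble protein was quantified by TMTpro 16plex LC-MS/MS after channel sums were equalised. It was obtained as the supernatant after 21,000xg for 90 min from pooled aliquots of K562 cells (2×10^6 cells/mL, 10 μM compound, 30 min) heated for 3 min across 48°C-58°C and extracted in PBS with 0.5% NP-40 at 4°C. Thermal stability values are relative to control samples and come from duplicates. They are given as log2 fold changes.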

filanesib = compound: CON(C)C(=O)N1N=C(c2cc(F)ccc2F)S[C@@]1(CCCN)c1ccccc1 [filanesib]
Procedure, shortened: as §1

zotarolimus = compound: CO[C@H]1C[C@@H]2CC[C@@H](C)[C@@](O)(O2)C(=O)C(=O)N2CCCC[C@H]2C(=O)O[C@H]([C@H](C)C[C@@H]2CC[C@H](n3cnnn3)[C@H](OC)C2)CC(=O)[C@H](C)/C=C(\C)[C@@H](O)[C@@H](OC)C(=O)[C@H](C)C[C@H](C)/C=C/C=C/C=C/1C [zotarolimus]
Procedure, shortened: as §1

idasanutlin = compound: COc1cc(C(=O)O)ccc1NC(=O)[C@@H]1N[C@@H](CC(C)(C)C)[C@](C#N)(c2ccc(Cl)cc2F)[C@H]1c1cccc(Cl)c1F [idasanutlin]
Procedure, shortened: as §1

alisertib = compound: COc1cc(Nc2ncc3c(n2)-c2ccc(Cl)cc2C(c2c(F)cccc2OC)=NC3)ccc1C(=O)O [alisertib]
Procedure, shortened: as §1

[2] = compound: COc1cc2nc(-c3cc(F)ccc3O)nc(N[C@@H]3CNC[C@H]3C(C)(C)O)c2cc1OC
Procedure, shortened: as §1

gefitinib = compound: COc1cc2ncnc(Nc3ccc(F)c(Cl)c3)c2cc1OCCCN1CCOCC1 [gefitinib]
Procedure, shortened: as §1

[3] = compound: COc1cccc2cc(-c3nc([C@H]4CC[C@H](C(=O)O)CC4)n4ncnc(N)c34)[nH]c12
Procedure, shortened: as §1

lapatinib = compound: CS(=O)(=O)CCNCc1ccc(-c2ccc3ncnc(Nc4ccc(OCc5cccc(F)c5)c(Cl)c4)c3c2)o1 [lapatinib]
Procedure, shortened: as §1

pictilisib = compound: CS(=O)(=O)N1CCN(Cc2cc3nc(-c4cccc5[nH]ncc45)nc(N4CCOCC4)c3s2)CC1 [pictilisib]
Procedure, shortened: as §1

[4] = compound: CS(=O)(=O)c1ccc(-c2cnc(N)c(C(=O)Nc3ccccc3)n2)cc1
Procedure, shortened: as §1

crizotinib = compound: C[C@@H](Oc1cc(-c2cnn(C3CCNCC3)c2)cnc1N)c1c(Cl)ccc(F)c1Cl [crizotinib]
Procedure, shortened: as §1

[5] = compound: C[C@@H]1COCCN1C2=NC(=NC(=C2)C3(CC3)S(=O)(=O)C)C4=C5C=CNC5=CC=C4
Procedure, shortened: as §1

[6] = compound: C[C@H](C1=CC=C(C=C1)C(=O)NC2=C3C=CNC3=NC=C2)N
Procedure, shortened: as §1

duvelisib = compound: C[C@H](Nc1ncnc2nc[nH]c12)c1cc2cccc(Cl)c2c(=O)n1-c1ccccc1 [duvelisib]
Procedure, shortened: as §1

gandotinib = compound: Cc1cc(Nc2cc(CN3CCOCC3)c3nc(C)c(Cc4ccc(Cl)cc4F)n3n2)n[nH]1 [gandotinib]
Procedure, shortened: as §1

tozasertib = compound: Cc1cc(Nc2cc(N3CCN(C)CC3)nc(Sc3ccc(NC(=O)C4CC4)cc3)n2)n[nH]1 [tozasertib]
Procedure, shortened: as §1

[7] = compound: Cc1cc(SCc2sc(-c3ccc(C(F)(F)F)cc3)nc2C)ccc1OCC(=O)O
Procedure, shortened: as §1

doramapimod = compound: Cc1ccc(-n2nc(C(C)(C)C)cc2NC(=O)Nc2ccc(OCCN3CCOCC3)c3ccccc23)cc1 [doramapimod]
Procedure, shortened: as §1

ispinesib = compound: Cc1ccc(C(=O)N(CCCN)[C@@H](c2nc3cc(Cl)ccc3c(=O)n2Cc2ccccc2)C(C)C)cc1 [ispinesib]
Procedure, shortened: as §1

Measured: log2 fold change

TRIM32 (UniProt Q13049)
inactive: [1] -0.097 | filanesib 0.048 | zotarolimus -0.114 | idasanutlin 0.044 | alisertib 0.287 | [2] 0.025 | gefitinib 0.12 | [3] 0.148 | lapatinib -0.019 | pictilisib 0.068 | [4] 0.024 | crizotinib 0.094 | [5] 0.066 | [6] 0.085 | duvelisib -0.045 | gandotinib -0.006 | tozasertib 0.01 | [7] -0.1 | doramapimod 0.036 | ispinesib 0

TRIP13 (UniProt Q15645)
inactive: [1] -0.01 | filanesib -0.127 | zotarolimus -0.002 | idasanutlin -0.053 | alisertib -0.104 | [2] -0.037 | gefitinib 0.015 | [3] 0.024 | lapatinib -0.007 | pictilisib -0.046 | [4] -0.024 | crizotinib -0.043 | [5] 0.067 | [6] -0.111 | duvelisib 0.044 | gandotinib -0.128 | tozasertib -0.006 | [7] -0.014 | doramapimod -0.001 | ispinesib -0.032

TRIR (UniProt Q9BQ61)
inactive: [1] 0.013 | filanesib 0.034 | zotarolimus -0.019 | idasanutlin 0.053 | alisertib -0.02 | [2] 0.074 | gefitinib 0.016 | [3] 0.049 | lapatinib -0.041 | pictilisib -0.01 | [4] 0 | crizotinib -0.003 | [5] -0.037 | [6] -0.029 | duvelisib -0.014 | gandotinib 0.035 | tozasertib -0.001 | [7] 0 | doramapimod -0.009 | ispinesib -0.015

TRNT1 (UniProt Q96Q11)
inactive: [1] 0.04 | filanesib 0.023 | zotarolimus -0.017 | idasanutlin -0.078 | alisertib -0.025 | [2] 0.068 | gefitinib -0.028 | [3] 0.064 | lapatinib 0.01 | pictilisib 0.043 | [4] 0.028 | crizotinib -0.068 | [5] 0.009 | [6] -0.014 | duvelisib 0.009 | gandotinib -0.042 | tozasertib -0.083 | [7] 0 | doramapimod -0.038 | ispinesib 0.012

TRIP6 (UniProt Q15654)
inactive: [1] 0.064 | filanesib -0.01 | zotarolimus 0.009 | idasanutlin 0.008 | alisertib -0.065 | [2] -0.008 | gefitinib -0.022 | [3] -0.006 | lapatinib 0.012 | pictilisib -0.002 | [4] -0.001 | crizotinib 0.067 | [5] 0.058 | [6] -0.057 | duvelisib 0.002 | gandotinib 0.046 | tozasertib -0.002 | [7] -0.011 | doramapimod -0.029 | ispinesib 0.037

TPM4, A0A2R8Y5V9
inactive: [1] -0.02 | filanesib -0.041 | zotarolimus -0.037 | idasanutlin -0.012 | alisertib -0.044 | [2] 0.039 | gefitinib 0.04 | [3] 0.074 | lapatinib 0.067 | pictilisib 0.012 | [4] 0.014 | crizotinib -0.004 | [5] -0.025 | [6] -0.086 | duvelisib 0.084 | gandotinib -0.049 | tozasertib -0.028 | [7] -0.055 | doramapimod 0.016 | ispinesib -0.051

TPM1 (UniProt H7BYY1)
inactive: [1] -0.112 | filanesib -0.012 | zotarolimus -0.037 | idasanutlin -0.12 | alisertib -0.073 | [2] 0.006 | gefitinib 0.023 | [3] 0.049 | lapatinib -0.071 | pictilisib 0.042 | [4] -0.005 | crizotinib 0.051 | [5] 0.051 | [6] 0.025 | duvelisib 0.062 | gandotinib 0.005 | tozasertib -0.044 | [7] -0.052 | doramapimod -0.034 | ispinesib -0.02

TOR1AIP1 isoform 3 (UniProt Q5JTV8)
inactive: [1] -0.025 | filanesib -0.028 | zotarolimus -0.021 | idasanutlin -0.027 | alisertib 0.086 | [2] 0.027 | gefitinib 0.003 | [3] 0.013 | lapatinib -0.055 | pictilisib -0.008 | [4] 0.004 | crizotinib 0.052 | [5] -0.017 | [6] -0.043 | duvelisib 0.023 | gandotinib -0.011 | tozasertib -0.009 | [7] 0.011 | doramapimod -0.029 | ispinesib 0.089

Reprinted from the entries so far (2 entries):
TPM1 (UniProt H7BYY1)
inactive: [1] -0.112 | filanesib -0.012 | zotarolimus -0.037 | idasanutlin -0.12 | alisertib -0.073 | [2] 0.006 | gefitinib 0.023 | [3] 0.049 | lapatinib -0.071 | pictilisib 0.042 | [4] -0.005 | crizotinib 0.051 | [5] 0.051 | [6] 0.025 | duvelisib 0.062 | gandotinib 0.005 | tozasertib -0.044 | [7] -0.052 | doramapimod -0.034 | ispinesib -0.02

TOR1AIP1 isoform 3 (UniProt Q5JTV8)
inactive: [1] -0.025 | filanesib -0.028 | zotarolimus -0.021 | idasanutlin -0.027 | alisertib 0.086 | [2] 0.027 | gefitinib 0.003 | [3] 0.013 | lapatinib -0.055 | pictilisib -0.008 | [4] 0.004 | crizotinib 0.052 | [5] -0.017 | [6] -0.043 | duvelisib 0.023 | gandotinib -0.011 | tozasertib -0.009 | [7] 0.011 | doramapimod -0.029 | ispinesib 0.089

Further records

TRMT112 (UniProt Q9UI30)
inactive: [1] -0.05 | filanesib 0.1 | zotarolimus 0.07 | idasanutlin -0.011 | alisertib -0.082 | [2] -0.024 | gefitinib 0.031 | [3] 0.006 | lapatinib -0.049 | pictilisib 0.055 | [4] 0.011 | crizotinib 0.101 | [5] 0.111 | [6] -0.073 | duvelisib 0.154 | gandotinib 0.004 | tozasertib -0.095 | [7] 0.112 | doramapimod 0.034 | ispinesib -0.019

TPST2 (UniProt O60704)
inactive: [1] 0.036 | filanesib -0.031 | zotarolimus -0.011 | idasanutlin -0.007 | alisertib -0.091 | [2] 0.055 | gefitinib 0.093 | [3] 0.023 | lapatinib -0.034 | pictilisib -0.009 | [4] 0.006 | crizotinib -0.223 | [5] 0.01 | [6] 0.049 | duvelisib -0.001 | gandotinib -0.001 | tozasertib 0.054 | [7] -0.008 | doramapimod 0.034 | ispinesib -0.017

TNKS1BP1 (UniProt Q9C0C2)
inactive: [1] -0.001 | filanesib 0.044 | zotarolimus -0.036 | idasanutlin 0.066 | alisertib -0.009 | [2] 0.038 | gefitinib -0.003 | [3] 0.025 | lapatinib 0.01 | pictilisib 0.012 | [4] 0.021 | crizotinib 0.025 | [5] -0.023 | [6] 0.003 | duvelisib 0.018 | gandotinib 0.055 | tozasertib -0.033 | [7] -0.062 | doramapimod 0.008 | ispinesib 0.006

TRAFD1 (UniProt O14545)
inactive: [1] 0.076 | filanesib -0.019 | zotarolimus -0.009 | idasanutlin 0.021 | alisertib -0.042 | [2] -0.06 | gefitinib -0.026 | [3] -0.01 | lapatinib 0.021 | pictilisib -0.014 | [4] -0.032 | crizotinib -0.022 | [5] -0.056 | [6] -0.087 | duvelisib 0.048 | gandotinib 0.077 | tozasertib 0.03 | [7] -0.051 | doramapimod -0.036 | ispinesib 0.012

TNFRSF1B (UniProt P20333)
inactive: [1] -0.062 | filanesib 0.009 | zotarolimus -0.045 | idasanutlin -0.009 | alisertib 0 | [2] -0.001 | gefitinib -0.005 | [3] -0.011 | lapatinib 0.054 | pictilisib 0.079 | [4] 0.092 | crizotinib 0.026 | [5] -0.157 | [6] 0.008 | duvelisib -0.194 | gandotinib 0.013 | tozasertib -0.027 | [7] -0.124 | doramapimod -0.042 | ispinesib 0.002

TRMT11 (UniProt Q7Z4G4)
inactive: [1] 0.042 | filanesib 0.002 | zotarolimus 0.015 | idasanutlin -0.046 | alisertib -0.011 | [2] -0.055 | gefitinib 0.03 | [3] 0.085 | lapatinib 0 | pictilisib -0.007 | [4] 0.047 | crizotinib 0.034 | [5] 0.086 | [6] -0.08 | duvelisib -0.017 | gandotinib 0.048 | tozasertib 0.004 | [7] -0.009 | doramapimod -0.1 | ispinesib 0.107

TP53RK (UniProt Q96S44)
inactive: [1] 0.03 | filanesib 0.011 | zotarolimus -0.001 | idasanutlin -0.047 | alisertib -0.014 | [2] 0.011 | gefitinib 0.006 | [3] 0.022 | lapatinib -0.005 | pictilisib 0.048 | [4] -0.019 | crizotinib 0.041 | [5] 0.022 | [6] -0.035 | duvelisib 0.036 | gandotinib -0.079 | tozasertib -0.029 | [7] -0.028 | doramapimod -0.007 | ispinesib 0.043

TRIP4 (UniProt Q15650)
inactive: [1] 0.004 | filanesib 0.037 | zotarolimus 0.057 | idasanutlin 0.043 | alisertib -0.005 | [2] 0.002 | gefitinib 0.022 | [3] -0.026 | lapatinib 0.013 | pictilisib -0.107 | [4] -0.07 | crizotinib -0.07 | [5] -0.134 | [6] 0.084 | duvelisib -0.004 | gandotinib 0.026 | tozasertib -0.014 | [7] 0.032 | doramapimod 0.045 | ispinesib -0.124
